# Some of the results follow. These are further read-outs of the screen, such as a control signal, another cell line or another target. No call is given for them. The list favours compounds with an active or inconclusive main result. Potencies come from curve fits of mixed quality, noted in brackets.
# Experiment: qHTS Assay for Modulators of Lamin A Splicing
# Details: HeLa LMNA splicing GFP/RFP minigene ratio, 48 h
# Method in brief: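 Read-out is the ratio of GFP to DsRed2 object intensity, acquired by 488 nm laser-scanning cytometry on HeLa lamin A-EGFP minigene reporter cells. Compound incubation 48 hrs at 37 °C in Opti-MEM with 2% FBS; DMSO 0.5% final.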
# [1] = measured here: RFP viability control channel
# [2] = measured here: GFP splicing reporter channel
Structure (SMILES),AC50 [1],AC50 [2]
CC(C)c1nc2oc3c(NCC4CCCO4)ncnc3c2c2c1CCC2 (configuration not stated),"10 µM [rising, single point]",
COc1cccc(CNC(=O)C2CCN(Cc3cc4ccccc4n3Cc3ccc(C)cc3)CC2)c1,"7.94 µM [falling, partial curve]",
COc1ccc(CN=C2Nc3ccccc3CS2)cc1,"35.5 µM [rising, single point]","14.1 µM [rising, single point]"
COc1ccc(-c2c(-c3ccc(O)cc3O)n[nH]c2C)cc1OC,"31.6 µM [rising, single point]",
CCN(CC)S(=O)(=O)c1cc(C(=O)OCC(=O)c2ccc3c(c2)NC(=O)CO3)ccc1F,"20 µM [rising, partial curve]","10 µM [rising, partial curve]"
O=C(OCn1ncc(Cl)c(Cl)c1=O)c1ccc(C(F)(F)F)cc1,"22.4 µM [falling, single point]","35.5 µM [falling, single point]"
COc1cnc(SCc2ccc(Cl)c(Cl)c2)nc1Cl,"17.8 µM [falling, single point]","15.8 µM [falling, single point]"
O=C(c1c[nH]c2ccccc2c1=O)N1CCCCCC1,,"0.02 µM [rising, full curve, poor fit]"
O=[N+]([O-])c1ccc2nc(-c3ccccc3)n(OCc3ccc(Cl)cc3)c2c1,"11.2 µM [falling, partial curve]",
Cc1cnccc1CN(C)Cc1cn(C)nc1-c1cccc(Cl)c1,"35.5 µM [falling, single point]","14.1 µM [falling, single point]"
Cc1nc2ccc(NC(=O)COc3ccccc3C)cc2s1,"1.12 µM [falling, partial curve, poor fit]","35.5 µM [falling, single point]"
O=C(c1ccc(F)cc1)C1CCN(C(=O)NC2CCCCC2)CC1,,"0.0398 µM [rising, full curve, poor fit]"
O=c1c2ccccc2nnn1CSc1nc2sc3c(c2c(=O)n1CC1CCCO1)CCC3 (configuration not stated),,"11.2 µM [rising, single point]"
Cc1cc(C)c(S(=O)(=O)N2CCCOC2CNC(=O)C(=O)NCCC2=CCCCC2)c(C)c1 (configuration not stated),,"0.0158 µM [falling, full curve, poor fit]"
CC(C)(C)C1CCc2c(sc(NC(=O)c3cccs3)c2C(=O)N2CCCCC2)C1 (configuration not stated),"12.6 µM [rising, single point]","22.4 µM [rising, single point]"
Cc1ccc(C)c(CNC(=O)c2ccc3c(c2)nc2n3CCC(C)C2)c1 (configuration not stated),"0.562 µM [falling, partial curve]",
Cc1cc(C)c2nc(N3CCC(C(=O)NCCCN4CCCCC4)CC3)sc2c1,"7.08 µM [falling, partial curve]",
O=C(/C=C/c1ccccc1)NC(=S)Nc1ccc2c3c(cccc13)CC2,"22.4 µM [rising, partial curve]",
COc1ccccc1C1=NC(c2ccc(F)cc2)N=C1C (configuration not stated),"1.78 µM [falling, partial curve, poor fit]",
Cc1ccc(NC(=O)CSc2nc3c(c(=O)[nH]2)CN(Cc2ccc(F)cc2)CC3)cc1C,,"0.0794 µM [falling, full curve, poor fit]"
CC1=CC2=NC(=O)/C(=C\c3cccn3CCOc3ccc(C)c(C)c3)C(=N)N2O1,"0.01 µM [rising, full curve, poor fit]",
O=C(/C=C/c1ccc(Cl)cc1)N1CCN(c2c(Cl)cccc2[N+](=O)[O-])CC1,"25.1 µM [rising, single point]","17.8 µM [rising, single point]"
Cc1cc(=O)[nH]c(SCC(=O)NCCC2=CCCCC2)n1,,"1.26 µM [rising, full curve, poor fit]"
COc1cc(NC(=O)c2cc3c(C)nc4ccccc4c3o2)cc(OC)c1OC,"10 µM [rising, partial curve]",
N#Cc1c(NC(=O)CCCl)sc2c1CCCCC2,"35.5 µM [falling, single point]","3.55 µM [falling, partial curve]"
Cc1cc(OC(F)F)ccc1NC(=O)Nc1ccc([N+](=O)[O-])cc1,"11.2 µM [rising, partial curve]",
Cc1ccccc1Cn1ccc(=NCc2ccccc2)cc1,"11.2 µM [rising, partial curve]","17.8 µM [rising, partial curve]"
O=C(CC1(O)C(=O)N(Cc2cccc3ccccc23)c2ccccc21)c1cccnc1 (configuration not stated),"14.1 µM [rising, partial curve, poor fit]","17.8 µM [rising, partial curve, poor fit]"

# Pulled by compound from the entries so far, 3 records:
Structure (SMILES),AC50 [1],AC50 [2]
O=C(c1ccc(F)cc1)C1CCN(C(=O)NC2CCCCC2)CC1,,"0.0398 µM [rising, full curve, poor fit]"
COc1ccccc1C1=NC(c2ccc(F)cc2)N=C1C (configuration not stated),"1.78 µM [falling, partial curve, poor fit]",
O=c1c2ccccc2nnn1CSc1nc2sc3c(c2c(=O)n1CC1CCCO1)CCC3 (configuration not stated),,"11.2 µM [rising, single point]"

# Following part:

Structure (SMILES),AC50 [1],AC50 [2]
COc1cccc(-c2cc(N(C)Cc3ccco3)ncn2)c1,"20 µM [falling, single point]","22.4 µM [falling, single point]"
Cc1cccc(NC(=O)COc2ccc3oc4c(c3c2)CCCC4)n1,"35.5 µM [rising, single point]",
O=C(Nc1ccccc1)c1ccc(S(=O)(=O)N2CCCCC2)cc1,"35.5 µM [rising, single point]",
COCC(C)N=C1NN=C(c2cc(C)n(Cc3ccccc3Cl)c2C)CS1 (configuration not stated),,"12.6 µM [falling, partial curve]"
COc1ccc(NC(=O)c2cc(S(=O)(=O)N(Cc3ccccc3)c3ccccc3)ccc2Cl)cn1,"35.5 µM [rising, single point]","35.5 µM [rising, single point]"
Cc1c([N+](=O)[O-])cc(C(=O)Nc2ccc(Cc3ccncc3)cc2)cc1[N+](=O)[O-],"31.6 µM [rising, single point]","35.5 µM [rising, single point]"
CC(C)=CCc1c2c(c(O)c3c(=O)c(O)c(-c4ccccc4)oc13)C=CC(C)(C)O2,"3.16 µM [rising, full curve, poor fit]","11.2 µM [falling, partial curve]"
N#Cc1ccc(NC(=O)COC(=O)C2Cc3ccccc3CN2C(=O)c2ccccc2)cc1 (configuration not stated),"5.62 µM [rising, partial curve]",
CCCC(=O)Nc1cccc(-c2cn3cccnc3n2)c1,,"0.282 µM [rising, single point]"
CC(=O)c1ccc(NC(=O)C2CC(=O)N(Cc3ccccc3)C2)cc1 (configuration not stated),"5.62 µM [rising, single point]","15.8 µM [rising, single point]"
Cc1csc2ncnc(NC3CCN(Cc4ccccc4)CC3)c12,"6.31 µM [falling, partial curve, poor fit]","3.16 µM [falling, partial curve, poor fit]"
CCOC(=O)c1ccccc1NC(=O)c1ccc(F)cc1,"10 µM [falling, partial curve, poor fit]",
COc1ccc(NC(=O)C2CCN(C(=O)N3CCOc4ccccc43)CC2)cc1,,"25.1 µM [falling, partial curve]"
CC(=O)Nc1nc(C)c(-c2csc(Nc3ccc(O)cc3)n2)s1,"3.55 µM [rising, full curve]",
COC(=O)c1c(C)[nH]c(C(=O)OCC(=O)NC(C)(C)C)c1C,"11.2 µM [rising, partial curve]",
CCOC(=O)C1CCCN(CCC(=O)Nc2ccc(C)c(C)c2)C1 (configuration not stated),"0.00398 µM [rising, full curve, poor fit]",
Cc1ccc(/C=N/Nc2nnc(Cl)c3ccccc23)cc1,"8.91 µM [rising, partial curve, poor fit]","8.91 µM [rising, partial curve, poor fit]"
Cc1ccc(C)c(NC(=O)c2ccccc2Sc2ccc([N+](=O)[O-])cc2Cl)c1,"35.5 µM [rising, single point]",
Cc1cc(C)nc(SCC(=O)c2cc3ccccc3oc2=O)n1,"8.91 µM [rising, partial curve]",
CCn1cc(C(=O)O)c(=O)c2cc(F)c(N3CCN(S(=O)(=O)c4ccc5c(c4)OCCO5)CC3)cc21,"0.0794 µM [falling, full curve, poor fit]","3.55 µM [falling, full curve]"
Cc1ccccc1NC(=S)NCCc1c[nH]c2ccccc12,"35.5 µM [rising, single point]",
Nc1ccc(C23CC4CC(CC(C4)C2)C3)cc1,"0.00355 µM [falling, full curve, poor fit]","0.0158 µM [falling, full curve]"
CCNC(=O)/C(C#N)=C/c1c(N(Cc2ccccc2)Cc2ccccc2)nc2ccccn2c1=O,"14.1 µM [rising, single point]",
CCOc1ccc(C(=O)c2cc([N+](=O)[O-])ccc2N2CCOCC2)cc1,"0.158 µM [rising, full curve]","0.316 µM [rising, full curve]"
CC(C)C(=O)NC(Nc1cc(C(F)(F)F)ccc1Cl)C(Cl)(Cl)Cl (configuration not stated),"12.6 µM [rising, partial curve]",
CN1/C(=C\C(=O)CSc2nnc(NCc3ccccc3)s2)C(C)(C)c2ccccc21,"15.8 µM [rising, partial curve]","11.2 µM [rising, partial curve]"
Cn1nnnc1SCC(=O)N1c2ccccc2Sc2ccc(Cl)cc21,"35.5 µM [rising, single point]",

# From PubChem BioAssay AID1487 (National Center for Advancing Translational Sciences (NCATS), 2009)
